PubChem BioAssay AID743454 – Peter MacCallum Cancer Centre – 2014
Screen: 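Genes whose loss kills vorinostat-resistant colon cancer cells under vorinostat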 (primary screen). Cells: human HCT116-VR colon cancer cells, selected for vorinostat resistance. Knock-down reagent: siRNA pool against human genes, 40 nM siRNA pool. Duration: vorinostat for 24 h, read-out about 72 h after transfection. Challenge: vorinostat at 2.5 µM final. Detection: 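Cell viability by CellTiter-Fluor and caspase 3/7 activity by luminescence, each scaled to mock wells per plate, duplicates averaged, then robust z-scored over all plates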. Scale: viability robust z-score: higher = more viable cells than screen typical; caspase robust z-score: higher = more caspase 3/7 activity than screen typical. Rule for the call: 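Hits are knock-downs in viability class RV1/RV2 or caspase class CA1/CA2, excluding ones that killed cells in the no-drug cell-count arm; hits then retested with single siRNAs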.
In all, the deposit lists about 18,000 reagents; this is an unselected part. 450 of all reagents (2.5%) were called active. 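Single biological run; no consistent viability z cut-off exists, so the class columns, not z-scores, define the calls.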 A number with no mark means an inactive call.

target gene | viability hit class | caspase hit class | viability robust z-score | caspase robust z-score
SLC35A2 | no change | no change | 0.19 | 2.38
SERPINB5 | no change | no change | 0.76 | 1.1
RAB11B | no change | no change | -0.7 | -0.82
BSCL2 | no change | no change | 0.44 | 1.75
IFT122 | no change | no change | 0.07 | -0.21
LHB | no change | no change | -0.6 | -0.88
TIRAP | no change | no change | -0.5 | -0.26
ERLIN2 | no change | no change | -0.84 | 1.12
ATP6V1F | no change | no change | 0.12 | 0.12
FLG2 | no change | no change | -1.6 | -0.18
EXOSC1 | no change | no change | -2.38 | -0.86
LRRC8C | no change | no change | 0.92 | -0.96
DPF1 | no change | no change | -1.79 | 0.94
OR13D1 | no change | no change | -0.62 | -0.34
GTF3C5 | no change | no change | 1.88 | 0.98
PLEKHA7 | no change | no change | -0.46 | 1.77
SLC27A5 | no change | no change | 0.12 | 0.27
GCK | no change | no change | -1.02 | 2.46
EARS2 | no change | no change | -0.66 | 2.8
GNA12 | no change | no change | -0.84 | 5.03
KRT40 | no change | no change | 0.61 | 0.36
SLC37A3 | no change | no change | 0.76 | 1.64
OR5H15 | no change | no change | 0.4 | 0.12
DGLUCY | no change | no change | 0.34 | 1.52
ZNF593 | no change | no change | -0.3 | 1.76
CDYL | no change | no change | 2.66 | 1.27
ZNF823 | no change | no change | 0.62 | -0.76
UPF1 | no change | no change | -0.33 | 1.22
NSDHL | no change | no change | -1.54 | 2.24
ABCC2 | no change | no change | 0.69 | -0.36
NDUFS6 | no change | no change | 0.2 | -0.42
DIP2A | no change | no change | 1.24 | 2.5
LLGL2 | no change | no change | 0.92 | 2.37
FILIP1 | no change | no change | 1.96 | 0.14
IGLL3P | no change | no change | 0.36 | -0.07

Copied from above, 7 entries:
target gene | viability hit class | caspase hit class | viability robust z-score | caspase robust z-score
OR5H15 | no change | no change | 0.4 | 0.12
DGLUCY | no change | no change | 0.34 | 1.52
ZNF593 | no change | no change | -0.3 | 1.76
CDYL | no change | no change | 2.66 | 1.27
ZNF823 | no change | no change | 0.62 | -0.76
UPF1 | no change | no change | -0.33 | 1.22
NSDHL | no change | no change | -1.54 | 2.24

The listing continues.
target gene | viability hit class | caspase hit class | viability robust z-score | caspase robust z-score
TARBP1 | no change | no change | 0.5 | 3.08
TATDN3 | no change | no change | -0.36 | -0.82
FHOD3 | no change | no change | -1.1 | 1.73
ADAM23 | no change | no change | 0.03 | -0.02
FLACC1 | no change | no change | -1.27 | 2.09
CACNA2D2 | no change | no change | -0.42 | -0.96
SPEM1 | no change | no change | -0.06 | -0.58
DCST2 | no change | no change | -0.12 | 0.07
CEP76 | no change | no change | -0.55 | 1.15
LIMS2 | no change | no change | 1.04 | 1.86
KRTAP10-10 | no change | no change | -2.2 | 2.01
ZNF483 | no change | no change | -1.51 | 0.56
FGD1 | no change | no change | -0.81 | -0.05
DNAJB6 | no change | no change | 0.68 | 0.07
BTNL9 | no change | no change | -1.04 | -0.94
SNX9 | no change | no change | -1.77 | 0.55
GRIA2 | no change | no change | 0.18 | -1.07
ADAM10 | no change | no change | -0.43 | -0.31
FIZ1 | no change | no change | 0.8 | 4.36
SRMS | no change | no change | -1.56 | -0.32
AVPR2 | no change | no change | -0.01 | 1.05
ALKBH8 | no change | no change | -0.44 | -0.59
